# Screening data, single-dose tests

Chains of the proteins cited; added tags and fusions are not shown.
UniProt I6X8D2, whole entry: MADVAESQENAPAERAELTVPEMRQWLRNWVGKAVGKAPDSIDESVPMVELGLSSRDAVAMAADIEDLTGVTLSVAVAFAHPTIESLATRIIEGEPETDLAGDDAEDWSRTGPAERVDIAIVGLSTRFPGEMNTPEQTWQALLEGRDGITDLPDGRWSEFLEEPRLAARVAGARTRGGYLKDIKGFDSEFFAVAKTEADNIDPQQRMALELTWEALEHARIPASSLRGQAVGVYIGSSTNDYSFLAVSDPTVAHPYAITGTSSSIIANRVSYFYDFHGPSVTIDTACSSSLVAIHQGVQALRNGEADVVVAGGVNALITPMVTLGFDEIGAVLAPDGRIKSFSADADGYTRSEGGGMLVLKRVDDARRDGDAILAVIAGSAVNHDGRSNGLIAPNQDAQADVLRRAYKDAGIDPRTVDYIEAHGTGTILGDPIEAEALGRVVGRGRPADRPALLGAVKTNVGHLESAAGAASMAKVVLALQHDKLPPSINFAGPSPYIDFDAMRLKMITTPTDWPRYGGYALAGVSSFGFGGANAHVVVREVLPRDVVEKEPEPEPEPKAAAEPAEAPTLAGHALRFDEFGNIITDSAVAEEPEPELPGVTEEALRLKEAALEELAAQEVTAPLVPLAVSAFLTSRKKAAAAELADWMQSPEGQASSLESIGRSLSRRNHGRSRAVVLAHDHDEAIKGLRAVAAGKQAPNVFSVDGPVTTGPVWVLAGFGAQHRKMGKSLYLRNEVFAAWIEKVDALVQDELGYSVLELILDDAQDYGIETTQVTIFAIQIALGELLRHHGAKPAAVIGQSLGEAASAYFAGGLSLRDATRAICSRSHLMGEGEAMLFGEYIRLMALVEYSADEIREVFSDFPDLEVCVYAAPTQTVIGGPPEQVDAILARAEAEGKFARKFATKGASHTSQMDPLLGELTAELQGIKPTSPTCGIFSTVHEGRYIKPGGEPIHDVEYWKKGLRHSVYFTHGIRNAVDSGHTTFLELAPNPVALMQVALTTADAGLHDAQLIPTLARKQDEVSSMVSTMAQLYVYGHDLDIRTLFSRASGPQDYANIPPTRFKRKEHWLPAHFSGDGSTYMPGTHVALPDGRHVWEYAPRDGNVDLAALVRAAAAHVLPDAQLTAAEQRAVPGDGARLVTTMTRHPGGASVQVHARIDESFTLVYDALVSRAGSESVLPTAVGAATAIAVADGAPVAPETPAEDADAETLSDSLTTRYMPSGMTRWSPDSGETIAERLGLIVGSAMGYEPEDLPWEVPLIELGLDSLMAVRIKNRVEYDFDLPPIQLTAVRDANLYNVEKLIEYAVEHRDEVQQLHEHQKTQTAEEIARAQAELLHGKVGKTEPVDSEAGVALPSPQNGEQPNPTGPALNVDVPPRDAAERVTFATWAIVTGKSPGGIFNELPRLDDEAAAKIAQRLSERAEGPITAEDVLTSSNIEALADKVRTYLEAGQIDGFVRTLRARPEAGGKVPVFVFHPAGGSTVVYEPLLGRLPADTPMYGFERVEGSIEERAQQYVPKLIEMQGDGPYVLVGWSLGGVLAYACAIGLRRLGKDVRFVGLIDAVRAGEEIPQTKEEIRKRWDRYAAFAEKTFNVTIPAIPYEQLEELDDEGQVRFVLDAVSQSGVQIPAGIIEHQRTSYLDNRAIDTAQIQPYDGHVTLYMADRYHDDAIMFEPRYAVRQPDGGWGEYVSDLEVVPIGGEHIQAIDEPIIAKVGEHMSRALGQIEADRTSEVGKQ
UniProt P9WPC5, whole entry: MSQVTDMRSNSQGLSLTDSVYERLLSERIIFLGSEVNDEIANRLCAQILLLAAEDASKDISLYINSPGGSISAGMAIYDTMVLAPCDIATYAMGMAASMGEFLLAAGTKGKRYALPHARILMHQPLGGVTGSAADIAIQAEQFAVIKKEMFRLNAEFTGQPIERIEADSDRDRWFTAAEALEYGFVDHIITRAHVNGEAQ
UniProt P9WPC3, whole entry partner: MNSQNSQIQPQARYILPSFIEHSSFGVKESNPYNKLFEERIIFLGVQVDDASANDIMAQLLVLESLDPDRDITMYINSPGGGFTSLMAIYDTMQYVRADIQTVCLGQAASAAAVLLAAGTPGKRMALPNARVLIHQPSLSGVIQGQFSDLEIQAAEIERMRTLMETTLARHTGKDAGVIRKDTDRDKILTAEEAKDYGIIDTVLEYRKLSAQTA

A: 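Cell assay of Leishmania donovani living inside macrophages; the read-out is not stated. Concentration: 30 µM. Higher reads as stronger inhibition (inferred: compounds with an IC50 in retests scored well above the rest). Of about 69,000 compounds tested this way, about 1,000 (1.5%) reached 50% or more in at least one test.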
B: 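Polyketide synthase Pks13, Mycobacterium tuberculosis (UniProt I6X8D2). Enzyme assay of the thioesterase domain of polyketide synthase 13; the read-out is not stated. Concentration: 30 µM. The record gives no direction; the compounds picked for IC50 retests had high values, so higher reads as stronger inhibition. Of about 67,000 compounds tested this way, about 300 (0.46%) reached 50% or more in at least one test.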
C: 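Protease assay of ClpP1P2, read by the AMC dye that it sets free. Target: ClpP1P2, Mycobacterium tuberculosis (UniProt P9WPC5 and UniProt P9WPC3). Tested at 50 µM. Higher reads as stronger inhibition, judged from the few compounds that gave an IC50. Most other retested compounds had strongly negative values. Of about 69,000 compounds tested this way, about 10 (0.015%) reached 50% or more in at least one test.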
D: 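Whole-parasite assay of Trypanosoma brucei over 72 hours; the read-out is not stated. Tested at 30 µM. The record gives no direction; compounds that gave an IC50 in retests scored well above the rest, so higher reads as stronger inhibition. Values scatter widely below zero; nearly all retest evidence comes from the higher of the two concentrations used. Size under these conditions: about 64,000 compounds, about 940 of them at 50% or above in at least one test.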

The filed quantity is “Percent Effect” (%).
How 0% and 100% were set is not recorded. Most values in the screen are low, and negative values occur.
Compounds were drawn at random from those tested, without regard to their results.

For Cn1c(=O)oc2cc(Nc3ncc(C#N)cc3Cl)ccc21 the result was A: 7.994%; B: -10.14%; C: -16.91%; D: -16.99%. For Cn1ccc(CNC(=O)Nc2ccc(S(=O)(=O)C(F)F)cc2)c1 the result was A: 15.63%; B: -30.73%; C: 9.224%; D: -7.299%. For CO[C@@]1(C)C[C@@H](O)C12CCN(C(=O)CCn1c(C)cccc1=O)CC2 the result was A: 8.217%; B: -20.14%; C: 1.919%; D: -31.84%. Result for Cc1cc(CN2CCN(c3ccc4nncn4n3)C(C)C2)on1 (centres unmarked) was A: -1.525%; B: -11.42%; C: -0.5289%; D: -35.04%.

With CNC(=O)CN1CCC12CCN(C(=O)Cc1ccccc1)C2.O=C(O)C(F)(F)F (centres unmarked) the screen gave A: 9.106%; D: 41.74%. For O=C(O)C(F)(F)F.[H][C@@]12CN(CC3CC3)C[C@]1([H])C(=O)N(Cc1cccc(F)c1)C2 the result was A: 10.61%. Cc1cnn(C2CN(CC(=O)Nc3cccnc3)C2)c1 gave A: 9.548%; B: -7.537%; C: -10.6%; D: -32.33%. For Cc1ccc(C(=O)N2C[C@@H](C(=O)O)[C@H](c3ccncc3)C2)cc1F the result was A: -0.3849%; B: -28.38%; C: 3.521%; D: -11.25%.

CC(C)c1nn(C)c(N(C)C)c1CNCc1cccc2cccnc12.Cl read A: 23.28%. Result for [H][C@@]12CS(=O)(=O)C[C@]1([H])N(Cc1cccc(C#N)c1)CCN2C(=O)C1CCC1 was A: -11.96%; D: -31.59%. For Cc1cccc(OC2CCN(c3nc(N)nc4[nH]cnc34)CC2)c1 the result was A: -13.41%; B: 8.007%; C: 21.88%; D: -27.63%. OCCOc1ccc(NCc2cccc3cn[nH]c23)cn1 gave A: 3.525%; B: -12.67%; C: -5.615%; D: -105%.

With Clc1cncc(N2CCCC2c2nnc3n2CCCCC3)n1 (centres unmarked) the screen gave A: 20%; B: -3.49%; C: -29.08%; D: -19.77%. O=C(O)C(F)(F)F.c1ncn(Cc2cnc3n2CCN(Cc2ccsc2)CC3)n1 read A: -12.88%; D: -0.4926%. Result for Cc1ccc2c(n1)N(C)CCN(C(=O)C1CC1)C2 was B: 1.647%; C: -8.344%. For COc1c(C)cnc(CN2CCCC(c3noc(C4CC4)n3)C2)c1C (centres unmarked) the result was A: -12.93%; B: -5.605%; C: 4.13%; D: -69.67%.

With [H][C@]12CC[C@]([H])(CN(CC(=O)Nc3ccn(C)n3)C1)N(CCOC)C2 the screen gave A: 25.97%; D: -19.43%. COc1nn(C)c2c1CCCN(C(=O)c1ccccc1F)C2 gave A: -31.99%; B: 1.872%; C: -4.002%; D: -40.89%. Cc1cc(C)n(CC2CCCN2C(=O)c2cn[nH]c2C)n1 (centres unmarked) gave A: -3.041%; B: -6.99%; C: -27.63%. CCOCC(=O)N1C[C@@H](O)[C@H](NC(C)=O)C1 gave A: 26.05%; B: 7.536%; C: -16.96%.

For CCC(C)(C)NC(=O)CN(Cc1cccc(O)c1)C1CCC(O)CC1 (centres unmarked) the result was A: 20.27%; B: -38.48%; C: -14.95%; D: -10.61%. CCS(=O)(=O)N1CCC(c2nnc(Cn3cccn3)n2C2CC2)CC1 read A: -22.22%; B: -0.5746%; C: -2.982%; D: -8.595%. CCN(CC(=O)NC)S(=O)(=O)N1CCCCCC1 gave A: 17.92%; B: -4.636%; C: 0.3294%; D: -39.2%. With Cc1ccc(NC2CCN(C(=O)c3sccc3C3CC3)CC2)nn1 the screen gave A: 15.35%; B: -13.24%; C: -5.724%.

With CC(C)NC(=O)CSc1nc2c(cnn2CCO)c(=O)[nH]1 the screen gave A: -19.44%; B: -4.316%; C: 15.89%; D: -11.25%. COc1ccccc1C1(CNC(=O)NCc2noc(C)n2)CC1 read A: 1.23%; B: -30.73%; C: -3.699%. O=C(OCCF)c1cccc(C(=O)N2CCCC2)n1 read A: -11.89%; B: -7.248%; C: -11.66%; D: -33.46%. Result for CCn1nc(C)cc1C(=O)N1CCOc2cc(C)ccc21 was A: 31.17%; B: -16.02%; C: 4.579%; D: -75.08%.

Source: ChEMBL document CHEMBL3988442, “University of Dundee, Small-Polar-MMV Screening Library” (2021).